From the supplement of paper PMC8728848
The other results are listed elsewhere or left out.

Tests used:
Test in all cases: glycan array binding signal (z-score within array); higher = stronger binding
Settings in all cases: glycan notation: IUPAC condensed, linker removed
[1] = target: Gal(b1-3)[Neu5Ac(a2-6)]GlcNAc(b1-6)Gal(b1-4)Glc
Method in brief: (§1)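 The Consortium for Functional Glycomics database supplied 3228 glycan arrays, of which those lacking an available protein sequence were dropped. The binding signal, a within-array Z-score, was averaged across arrays of the same protein sequence and across linkers. Negative scores can be read as non-binding.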

[2] = target: Gal(b1-3)[Neu5Ac(b2-6)]GalNAc
Method in brief: as §1

[3] = target: Gal(b1-4)GalNAc(a1-3)[Fuc(a1-2)]Gal(b1-4)GlcNAc
Method in brief: as §1

[4] = target: Gal(b1-4)GalNAc(b1-3)[Fuc(a1-2)]Gal(b1-4)GlcNAc
Method in brief: as §1

[5] = target: Gal(b1-4)Glc
Method in brief: as §1

[6] = target: Gal(b1-4)Glc6S
Method in brief: as §1

[7] = target: Gal(b1-4)GlcNAc
Method in brief: as §1

[8] = target: Gal(b1-4)GlcNAc(b1-2)Man(a1-3)[Gal(b1-4)GlcNAc(b1-2)Man(a1-6)]Man(b1-4)GlcNAc(b1-4)GlcNAc
Method in brief: as §1

[9] = target: Gal(b1-4)GlcNAc(b1-3)Gal(b1-3)GlcNAc
Method in brief: as §1

[10] = target: Gal(b1-4)GlcNAc(b1-3)Gal(b1-4)Glc
Method in brief: as §1

[11] = target: Gal(b1-4)GlcNAc(b1-3)Gal(b1-4)GlcNAc
Method in brief: as §1

[12] = target: Gal(b1-4)GlcNAc(b1-3)Gal(b1-4)GlcNAc(b1-3)Gal(b1-4)GlcNAc
Method in brief: as §1

[13] = target: Gal(b1-4)GlcNAc(b1-3)Gal(b1-4)[Fuc(a1-3)]GlcNAc(b1-3)Gal(b1-4)[Fuc(a1-3)]GlcNAc
Method in brief: as §1

[14] = target: Gal(b1-4)GlcNAc(b1-3)GalNAc
Method in brief: as §1

[15] = target: Gal(b1-4)GlcNAc(b1-3)[Gal(b1-4)GlcNAc(b1-6)]GalNAc
Method in brief: as §1

[16] = target: Gal(b1-4)GlcNAc(b1-6)Gal(b1-4)GlcNAc(b1-6)GalNAc
Method in brief: as §1

[17] = target: Gal(b1-4)GlcNAc(b1-6)GalNAc
Method in brief: as §1

[18] = target: Gal(b1-4)GlcNAc(b1-6)[Gal(b1-3)]GalNAc
Method in brief: as §1

[19] = target: Gal3S(b1-3)GalNAc
Method in brief: as §1

[20] = target: Gal3S(b1-3)GlcNAc
Method in brief: as §1

[21] = target: Gal3S(b1-3)[Fuc(a1-4)]GlcNAc
Method in brief: as §1

[22] = target: Gal3S(b1-4)Glc
Method in brief: as §1

[23] = target: Gal3S(b1-4)Glc6S
Method in brief: as §1

[24] = target: Gal3S(b1-4)GlcNAc
Method in brief: as §1

[25] = target: Gal3S(b1-4)GlcNAc6S
Method in brief: as §1

[26] = target: Gal3S(b1-4)[Fuc(a1-3)]Glc
Method in brief: as §1

[27] = target: Gal3S6S(b1-4)GlcNAc
Method in brief: as §1

[28] = target: Gal3S6S(b1-4)GlcNAc6S
Method in brief: as §1

[29] = target: Gal4S(b1-4)GlcNAc
Method in brief: as §1

[30] = target: Gal4S6S(b1-4)GlcNAc
Method in brief: as §1

[31] = target: Gal6S(b1-4)Glc
Method in brief: as §1

[32] = target: Gal6S(b1-4)Glc6S
Method in brief: as §1

[33] = target: Gal6S(b1-4)GlcNAc
Method in brief: as §1

[34] = target: GalNAc(a1-3)Gal
Method in brief: as §1

[35] = target: GalNAc(a1-3)GalNAc
Method in brief: as §1

[36] = target: GalNAc(b1-3)Gal(a1-4)Gal(b1-4)GlcNAc
Method in brief: as §1

[37] = target: GalNAc(b1-3)GalNAc
Method in brief: as §1

[38] = target: GalNAc(b1-4)GlcNAc
Method in brief: as §1

[39] = target: Glc(a1-4)Glc
Method in brief: as §1

[40] = target: Glc(a1-6)Glc(a1-6)Glc
Method in brief: as §1

[41] = target: Glc(b1-4)Glc
Method in brief: as §1

[42] = target: Glc(b1-6)Glc
Method in brief: as §1

[43] = target: GlcA(b1-3)Gal
Method in brief: as §1

[44] = target: GlcA(b1-6)Gal
Method in brief: as §1

[45] = target: GlcNAc(a1-3)Gal(b1-4)GlcNAc
Method in brief: as §1

[46] = target: GlcNAc(a1-6)Gal(b1-4)GlcNAc
Method in brief: as §1

[47] = target: GlcNAc(b1-2)Gal(b1-3)GalNAc
Method in brief: as §1

[48] = target: GlcNAc(b1-2)Man(a1-3)[GlcNAc(b1-2)Man(a1-6)]Man(b1-4)GlcNAc(b1-4)GlcNAc
Method in brief: as §1

[49] = target: GlcNAc(b1-3)Gal
Method in brief: as §1

[50] = target: GlcNAc(b1-3)Gal(b1-3)GalNAc
Method in brief: as §1

[51] = target: GlcNAc(b1-3)Gal(b1-4)Glc
Method in brief: as §1

[52] = target: GlcNAc(b1-3)Gal(b1-4)GlcNAc
Method in brief: as §1

[53] = target: GlcNAc(b1-3)Gal(b1-4)GlcNAc(b1-3)Gal(b1-4)GlcNAc
Method in brief: as §1

[54] = target: GlcNAc(b1-3)GalNAc
Method in brief: as §1

[55] = target: GlcNAc(b1-3)[GlcNAc(b1-6)]Gal(b1-4)GlcNAc
Method in brief: as §1

[56] = target: GlcNAc(b1-3)[GlcNAc(b1-6)]GalNAc
Method in brief: as §1

[57] = target: GlcNAc(b1-3)[GlcNAc(b1-6)]GlcNAc(b1-4)GlcNAc
Method in brief: as §1

[58] = target: GlcNAc(b1-4)Gal(b1-4)GlcNAc
Method in brief: as §1

[59] = target: GlcNAc(b1-4)GlcNAc(b1-4)GlcNAc
Method in brief: as §1

[60] = target: GlcNAc(b1-4)GlcNAc(b1-4)GlcNAc(b1-4)GlcNAc(b1-4)GlcNAc
Method in brief: as §1

[61] = target: GlcNAc(b1-4)GlcNAc(b1-4)GlcNAc(b1-4)GlcNAc(b1-4)GlcNAc(b1-4)GlcNAc
Method in brief: as §1

[62] = target: GlcNAc(b1-4)[GlcNAc(b1-6)]GalNAc
Method in brief: as §1

[63] = target: GlcNAc(b1-6)Gal(b1-4)GlcNAc
Method in brief: as §1

[64] = target: GlcNAc(b1-6)GalNAc
Method in brief: as §1

[65] = target: Kdn(a2-3)Gal(b1-3)GlcNAc
Method in brief: as §1

[66] = target: Kdn(a2-3)Gal(b1-4)GlcNAc
Method in brief: as §1

[67] = target: Man(a1-2)Man(a1-2)Man(a1-3)Man
Method in brief: as §1

[68] = target: Man(a1-2)Man(a1-2)Man(a1-6)[Man(a1-3)]Man
Method in brief: as §1

[69] = target: Man(a1-2)Man(a1-3)Man
Method in brief: as §1

[70] = target: Man(a1-2)Man(a1-3)[Man(a1-2)Man(a1-6)]Man
Method in brief: as §1

[71] = target: Man(a1-2)Man(a1-3)[Man(a1-2)Man(a1-6)]Man(a1-6)[Man(a1-2)Man(a1-2)Man(a1-3)]Man(b1-4)GlcNAc(b1-4)GlcNAc
Method in brief: as §1

[72] = target: Man(a1-2)Man(a1-3)[Man(a1-6)]Man(a1-6)[Man(a1-2)Man(a1-3)]Man(b1-4)GlcNAc(b1-4)GlcNAc
Method in brief: as §1

[73] = target: Man(a1-2)Man(a1-6)[Man(a1-3)]Man(a1-6)[Man(a1-2)Man(a1-2)Man(a1-3)]Man(b1-4)GlcNAc(b1-4)GlcNAc
Method in brief: as §1

[74] = target: Man(a1-3)[Man(a1-6)]Man
Method in brief: as §1

[75] = target: Man(a1-3)[Man(a1-6)]Man(a1-6)[Man(a1-2)Man(a1-3)]Man(b1-4)GlcNAc(b1-4)GlcNAc
Method in brief: as §1

B1: CTMLA2 (Anopheles gambiae), Q7Q7F8 (protein)
chain: MNLMITILIAVITVVRGDLSVPKTVDDILQQNPCLCPCKPFEEKEYFIPISRTSDWFGAVAYCHSVGMELAEVLNEDEARAMGEVIAEEESDSDDEFYWIGANDLGVQGTYRWALAGRPVLYSQWAAGEPNHARGENGQQPAERCVAVAMDKYEWNDFQCTQQKPFICQQFRKH
- glycan array binding signal (z-score) [1]: -0.49
- glycan array binding signal (z-score) [2]: -0.168
- glycan array binding signal (z-score) [3]: -0.118
- glycan array binding signal (z-score) [4]: -0.354
- glycan array binding signal (z-score) [5]: -0.366
- glycan array binding signal (z-score) [6]: 0.005
- glycan array binding signal (z-score) [7]: -0.338
- glycan array binding signal (z-score) [8]: 0.217
- glycan array binding signal (z-score) [9]: -0.199
- glycan array binding signal (z-score) [10]: -0.248
- glycan array binding signal (z-score) [11]: -0.249
- glycan array binding signal (z-score) [12]: -0.39
- glycan array binding signal (z-score) [13]: -0.289
- glycan array binding signal (z-score) [14]: -0.165
- glycan array binding signal (z-score) [15]: 0.036
- glycan array binding signal (z-score) [16]: 0.098
- glycan array binding signal (z-score) [17]: -0.049
- glycan array binding signal (z-score) [18]: -0.535
- glycan array binding signal (z-score) [19]: 0.422
- glycan array binding signal (z-score) [20]: 1.6
- glycan array binding signal (z-score) [21]: 0.17
- glycan array binding signal (z-score) [22]: -0.063
- glycan array binding signal (z-score) [23]: 0.323
- glycan array binding signal (z-score) [24]: 0.224
- glycan array binding signal (z-score) [25]: 0.573
- glycan array binding signal (z-score) [26]: -0.624
- glycan array binding signal (z-score) [27]: 1.36
- glycan array binding signal (z-score) [28]: 0.304
- glycan array binding signal (z-score) [29]: 0.87
- glycan array binding signal (z-score) [30]: 0.011
- glycan array binding signal (z-score) [31]: 0.404
- glycan array binding signal (z-score) [32]: 0.458
- glycan array binding signal (z-score) [33]: 0.772
- glycan array binding signal (z-score) [34]: 0.19
- glycan array binding signal (z-score) [35]: -0.298
- glycan array binding signal (z-score) [36]: -0.109
- glycan array binding signal (z-score) [37]: -0.135
- glycan array binding signal (z-score) [38]: -0.062
- glycan array binding signal (z-score) [39]: -0.393
- glycan array binding signal (z-score) [40]: -0.271
- glycan array binding signal (z-score) [41]: 0.094
- glycan array binding signal (z-score) [42]: -0.2
- glycan array binding signal (z-score) [43]: 0.087
- glycan array binding signal (z-score) [44]: 0.777
- glycan array binding signal (z-score) [45]: -0.13
- glycan array binding signal (z-score) [46]: -0.363
- glycan array binding signal (z-score) [47]: 0.567
- glycan array binding signal (z-score) [48]: -0.189
- glycan array binding signal (z-score) [49]: -0.283
- glycan array binding signal (z-score) [50]: 1.18
- glycan array binding signal (z-score) [51]: -0.264
- glycan array binding signal (z-score) [52]: -0.188
- glycan array binding signal (z-score) [53]: -0.389
- glycan array binding signal (z-score) [54]: -0.569
- glycan array binding signal (z-score) [55]: -0.469
- glycan array binding signal (z-score) [56]: -0.515
- glycan array binding signal (z-score) [57]: 0.928
- glycan array binding signal (z-score) [58]: -0.36
- glycan array binding signal (z-score) [59]: -0.218
- glycan array binding signal (z-score) [60]: -0.422
- glycan array binding signal (z-score) [61]: -0.832
- glycan array binding signal (z-score) [62]: -0.15
- glycan array binding signal (z-score) [63]: -0.257
- glycan array binding signal (z-score) [64]: -0.407
- glycan array binding signal (z-score) [65]: -0.664
- glycan array binding signal (z-score) [66]: 0.054
- glycan array binding signal (z-score) [67]: -0.237
- glycan array binding signal (z-score) [68]: -0.252
- glycan array binding signal (z-score) [69]: -0.273
- glycan array binding signal (z-score) [70]: -0.134
- glycan array binding signal (z-score) [71]: 0.101
- glycan array binding signal (z-score) [72]: -0.309
- glycan array binding signal (z-score) [73]: -0.52
- glycan array binding signal (z-score) [74]: -0.271
- glycan array binding signal (z-score) [75]: -0.058
